Patent US20150276762A1 (NVH MEDICINAL, published 2015)
No constants are given. Whether binding was seen depends on the method and setting. Some entries that bind do so weakly or less than the wild type.

Protein sequences, listed by entry. Tags and fused reporters are not part of them. Residues count along the entry.
UniProt P04275, residues 764-2813: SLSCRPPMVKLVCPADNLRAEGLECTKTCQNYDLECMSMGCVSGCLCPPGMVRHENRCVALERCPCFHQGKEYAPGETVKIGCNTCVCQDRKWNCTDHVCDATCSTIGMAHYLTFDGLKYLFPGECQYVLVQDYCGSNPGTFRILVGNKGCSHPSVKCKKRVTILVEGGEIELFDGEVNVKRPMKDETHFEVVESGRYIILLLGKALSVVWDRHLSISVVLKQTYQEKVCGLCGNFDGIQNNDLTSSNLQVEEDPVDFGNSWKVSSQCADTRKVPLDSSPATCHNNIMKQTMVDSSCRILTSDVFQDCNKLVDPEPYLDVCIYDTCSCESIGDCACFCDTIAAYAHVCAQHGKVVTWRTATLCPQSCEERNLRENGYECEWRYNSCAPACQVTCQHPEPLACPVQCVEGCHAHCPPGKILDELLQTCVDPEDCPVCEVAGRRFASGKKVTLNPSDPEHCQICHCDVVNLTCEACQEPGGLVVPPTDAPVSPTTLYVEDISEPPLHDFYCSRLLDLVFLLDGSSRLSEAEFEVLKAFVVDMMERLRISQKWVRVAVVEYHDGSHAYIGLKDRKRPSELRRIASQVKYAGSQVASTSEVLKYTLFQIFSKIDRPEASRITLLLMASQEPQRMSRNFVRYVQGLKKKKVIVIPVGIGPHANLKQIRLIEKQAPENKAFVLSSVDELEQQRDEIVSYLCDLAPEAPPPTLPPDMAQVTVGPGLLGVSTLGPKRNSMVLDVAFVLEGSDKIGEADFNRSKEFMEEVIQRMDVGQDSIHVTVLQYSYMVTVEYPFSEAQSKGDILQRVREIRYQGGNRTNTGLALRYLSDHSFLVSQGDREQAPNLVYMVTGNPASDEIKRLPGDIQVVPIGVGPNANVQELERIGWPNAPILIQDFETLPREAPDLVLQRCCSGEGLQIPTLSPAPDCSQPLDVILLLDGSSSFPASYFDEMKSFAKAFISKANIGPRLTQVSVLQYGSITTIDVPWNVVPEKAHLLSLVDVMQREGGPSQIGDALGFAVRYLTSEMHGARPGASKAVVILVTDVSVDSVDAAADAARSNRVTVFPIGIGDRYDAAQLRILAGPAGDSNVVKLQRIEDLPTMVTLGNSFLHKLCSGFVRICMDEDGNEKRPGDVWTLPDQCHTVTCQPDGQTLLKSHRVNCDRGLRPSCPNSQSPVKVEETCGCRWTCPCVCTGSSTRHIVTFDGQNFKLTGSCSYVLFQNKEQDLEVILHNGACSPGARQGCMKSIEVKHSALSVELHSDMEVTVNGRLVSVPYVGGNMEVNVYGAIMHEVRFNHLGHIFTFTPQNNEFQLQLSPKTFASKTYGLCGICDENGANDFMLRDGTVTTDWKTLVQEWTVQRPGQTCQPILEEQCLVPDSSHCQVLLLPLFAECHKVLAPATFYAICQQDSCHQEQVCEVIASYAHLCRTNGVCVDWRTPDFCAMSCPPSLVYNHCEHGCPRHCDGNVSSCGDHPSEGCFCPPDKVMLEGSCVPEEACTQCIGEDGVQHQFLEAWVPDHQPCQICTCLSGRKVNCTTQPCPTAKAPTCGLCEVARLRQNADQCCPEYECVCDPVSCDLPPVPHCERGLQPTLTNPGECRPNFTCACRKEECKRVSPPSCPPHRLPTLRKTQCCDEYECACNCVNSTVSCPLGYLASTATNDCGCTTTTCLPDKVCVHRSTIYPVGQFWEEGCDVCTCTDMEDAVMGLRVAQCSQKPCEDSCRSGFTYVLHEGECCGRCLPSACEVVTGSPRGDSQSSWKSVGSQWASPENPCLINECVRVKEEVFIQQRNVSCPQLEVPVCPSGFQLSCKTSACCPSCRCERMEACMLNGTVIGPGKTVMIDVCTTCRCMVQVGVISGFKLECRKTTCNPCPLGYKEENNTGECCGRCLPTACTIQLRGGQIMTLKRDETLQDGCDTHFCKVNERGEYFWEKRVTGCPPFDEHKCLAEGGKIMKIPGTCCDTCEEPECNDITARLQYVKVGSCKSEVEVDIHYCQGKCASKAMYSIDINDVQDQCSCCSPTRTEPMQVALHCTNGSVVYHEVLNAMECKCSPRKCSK
UniProt P02461, residues 154-1221: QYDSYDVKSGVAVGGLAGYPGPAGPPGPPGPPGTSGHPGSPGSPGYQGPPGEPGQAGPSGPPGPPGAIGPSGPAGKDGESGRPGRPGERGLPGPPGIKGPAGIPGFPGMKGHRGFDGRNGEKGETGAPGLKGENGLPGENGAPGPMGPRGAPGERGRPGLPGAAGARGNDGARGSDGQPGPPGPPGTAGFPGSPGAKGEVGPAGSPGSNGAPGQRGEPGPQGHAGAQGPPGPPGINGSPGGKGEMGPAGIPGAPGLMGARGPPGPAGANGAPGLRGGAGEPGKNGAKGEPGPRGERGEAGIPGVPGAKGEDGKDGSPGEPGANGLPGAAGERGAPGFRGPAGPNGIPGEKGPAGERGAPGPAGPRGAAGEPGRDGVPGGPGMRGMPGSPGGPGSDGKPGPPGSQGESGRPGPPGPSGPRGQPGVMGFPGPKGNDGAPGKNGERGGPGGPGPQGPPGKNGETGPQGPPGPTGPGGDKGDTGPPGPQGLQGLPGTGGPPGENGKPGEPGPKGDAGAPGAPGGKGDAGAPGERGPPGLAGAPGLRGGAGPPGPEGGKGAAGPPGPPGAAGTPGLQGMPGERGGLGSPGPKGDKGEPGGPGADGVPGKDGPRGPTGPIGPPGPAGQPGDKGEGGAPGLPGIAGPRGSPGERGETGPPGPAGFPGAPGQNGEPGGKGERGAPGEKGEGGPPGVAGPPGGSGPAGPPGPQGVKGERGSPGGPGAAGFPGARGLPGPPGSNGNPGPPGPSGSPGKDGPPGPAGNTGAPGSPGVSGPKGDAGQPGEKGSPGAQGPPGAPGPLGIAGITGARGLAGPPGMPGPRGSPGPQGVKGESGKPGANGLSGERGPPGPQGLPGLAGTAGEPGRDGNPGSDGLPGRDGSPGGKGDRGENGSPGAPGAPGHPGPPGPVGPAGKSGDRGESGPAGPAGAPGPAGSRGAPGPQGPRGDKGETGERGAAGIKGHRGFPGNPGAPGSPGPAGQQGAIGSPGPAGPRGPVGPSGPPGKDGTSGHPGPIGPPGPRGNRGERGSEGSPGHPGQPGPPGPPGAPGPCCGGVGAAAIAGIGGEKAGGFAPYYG

Columns and labels:
[1] = target: purified von Willebrand factor (Wilfactin, 100 IU/ml, LFB) (UniProt P04275); test: ELISA, coated at 2 µg/ml, vWF at 0 to 2 IU/dl
[2] = target: purified von Willebrand factor (Wilfactin, 100 IU/ml, LFB) (UniProt P04275); test: ELISA, coated at 0.03125 to 2 µg/ml, vWF at 2 IU/dl
[3] = target: purified von Willebrand factor (Wilfactin, 100 IU/ml, LFB) (UniProt P04275); test: ELISA, coated at 10 or 2 µg/ml, vWF at 0, 0.4 and 2 IU/dl
[4] = target: purified von Willebrand factor (Wilfactin, 100 IU/ml, LFB) (UniProt P04275); test: ELISA, coated at 10 or 2 µg/ml

Measured: binding

type III collagen (BD Biosciences), used as a reference (from UniProt P02461 154-1221)
binds: all assays above
